Source: article PMC9613683

Sequences of proteins named here, by UniProt entry; tags and fusion partners are left off. Residues count along the entry.
UniProt P78310, residues 20-365: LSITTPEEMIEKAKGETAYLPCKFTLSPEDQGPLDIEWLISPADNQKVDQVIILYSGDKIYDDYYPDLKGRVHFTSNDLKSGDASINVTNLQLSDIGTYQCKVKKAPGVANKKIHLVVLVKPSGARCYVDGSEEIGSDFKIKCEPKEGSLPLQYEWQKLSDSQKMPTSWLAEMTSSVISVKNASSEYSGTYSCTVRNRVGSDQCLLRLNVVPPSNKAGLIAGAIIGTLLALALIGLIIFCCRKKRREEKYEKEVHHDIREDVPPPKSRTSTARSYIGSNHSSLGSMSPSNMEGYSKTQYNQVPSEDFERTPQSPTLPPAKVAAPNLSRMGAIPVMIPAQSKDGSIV
UniProt P46937: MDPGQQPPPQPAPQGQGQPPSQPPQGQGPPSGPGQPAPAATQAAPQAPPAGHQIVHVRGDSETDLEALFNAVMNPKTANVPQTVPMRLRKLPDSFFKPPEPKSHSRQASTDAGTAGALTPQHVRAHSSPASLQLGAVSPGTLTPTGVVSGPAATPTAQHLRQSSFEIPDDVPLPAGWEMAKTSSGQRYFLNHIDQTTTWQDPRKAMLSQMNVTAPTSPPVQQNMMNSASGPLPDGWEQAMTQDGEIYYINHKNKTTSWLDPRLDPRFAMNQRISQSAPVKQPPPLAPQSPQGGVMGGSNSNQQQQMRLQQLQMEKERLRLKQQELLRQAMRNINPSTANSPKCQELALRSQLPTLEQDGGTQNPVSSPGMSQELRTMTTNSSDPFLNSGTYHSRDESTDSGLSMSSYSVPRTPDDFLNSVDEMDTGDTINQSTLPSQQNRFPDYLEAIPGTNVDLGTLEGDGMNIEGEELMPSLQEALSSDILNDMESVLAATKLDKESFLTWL
UniProt Q03135: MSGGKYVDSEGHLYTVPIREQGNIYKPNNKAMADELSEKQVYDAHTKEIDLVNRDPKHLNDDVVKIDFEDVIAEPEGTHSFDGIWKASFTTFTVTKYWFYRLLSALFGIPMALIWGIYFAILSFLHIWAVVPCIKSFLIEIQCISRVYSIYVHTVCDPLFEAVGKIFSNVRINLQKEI
UniProt Q15836: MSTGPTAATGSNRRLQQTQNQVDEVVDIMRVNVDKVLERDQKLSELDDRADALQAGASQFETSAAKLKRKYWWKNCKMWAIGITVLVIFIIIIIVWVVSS
UniProt Q9Y5X1: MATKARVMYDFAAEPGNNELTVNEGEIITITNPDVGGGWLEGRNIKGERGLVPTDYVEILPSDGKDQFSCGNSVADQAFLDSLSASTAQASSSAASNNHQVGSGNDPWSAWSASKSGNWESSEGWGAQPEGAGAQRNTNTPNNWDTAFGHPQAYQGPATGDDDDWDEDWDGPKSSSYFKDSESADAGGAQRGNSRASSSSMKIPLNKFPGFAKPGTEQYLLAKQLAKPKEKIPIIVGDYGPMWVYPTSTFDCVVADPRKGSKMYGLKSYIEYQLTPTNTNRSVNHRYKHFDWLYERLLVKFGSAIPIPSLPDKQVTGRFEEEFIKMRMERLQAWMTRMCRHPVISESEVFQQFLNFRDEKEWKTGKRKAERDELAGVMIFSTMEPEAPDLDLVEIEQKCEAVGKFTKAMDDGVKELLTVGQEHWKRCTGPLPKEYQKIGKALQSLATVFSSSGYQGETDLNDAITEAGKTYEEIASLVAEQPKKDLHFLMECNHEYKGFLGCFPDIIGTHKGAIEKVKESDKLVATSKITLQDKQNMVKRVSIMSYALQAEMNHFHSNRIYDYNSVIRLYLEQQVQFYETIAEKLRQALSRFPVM

Legend:
[1] = biological target: full-length CAR with a TurboID tag inserted between Lys285 and Ser286 (UniProt P78310); experiment: proximity labelling; BioID with CAR-TurboID (CAR-BirA) in 16HBE CAR CRISPR cells; 500 µM biotin for 15 min; streptavidin beads; LC-MS/MS; enrichment against control samples
[2] = biological target: full-length CAR with a TurboID tag inserted between Lys285 and Ser286 (UniProt P78310); experiment: as above; remark: listed apart in the source

binding [1] | binding [2] | Molecule
binds |  | YAP1 (from UniProt P46937 1-504)
binds |  | caveolin-1 (from UniProt Q03135 1-178)
 | binds | Rab23 (protein, UniProt Q9ULC3 1-237) MLEEDMEVAIKMVVVGNGAVGKSSMIQRYCKGIFTKDYKKTIGVDFLERQIQVNDEDVRLMLWDTAGQEEFDAITKAYYRGAQACVLVFSTTDRESFEAVSSWREKVVAEVGDIPTVLVQNKIDLLDDSCIKNEEAEALAKRLKLRFYRTSVKEDLNVNEVFKYLAEKYLQKLKQQIAEDPELTHSSSNKIGVFNTSGGSHSGQNSGTLNGGDVINLRPNKQRTKKNRNPFSSCSIP

Further lines, the molecule ahead of its results:

Molecule | binding [1] | binding [2]
VAMP-3 (from UniProt Q15836 1-100) | binds | 
sorting nexin-9 (from UniProt Q9Y5X1 1-595) | binds | 

Where two headings read alike, the source gives them in different places. These are yes or no findings as the source states them, for the method shown. Binding seen in cells or lysates may run through a third protein. A yes stands for co-enrichment or nearness to the bait. Other partners may have been found.
